Experimental findings from the supplement of paper PMC11150407 are described below.

About 45 (2%) of roughly 3,000 compounds showed an effect of 50% or more. The list shows a part of the results.

The test system of the assay is MOLM1 and UCSD/AML1 (averaged). Kind of assay: cell viability relative to DMSO control (POC); higher = less growth inhibition. Conditions: 1 µM; 72 h. As for the experimental part:
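Primary viability screen in the 3q26 EVI1-high AML cell lines MOLM1 and UCSD/AML1, compounds at 1 uM for 72 h. ATP CellTiter-Glo read-out given as percent viable over DMSO control (POC), averaged over duplicates. This mapping covers the TimTec NDL-3000 natural derivative library, whose compounds are identified by TimTec catalogue codes (ST...).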
Broadly, the cell viability is a read-out of living cells in per cent, often relative to untreated cells. `COc1c2cc(C(C)(C)C)cc1Cc1cc(C(C)(C)C)cc(c1O)Cc1cc(C(C)(C)C)cc(c1OC)Cc1cc(C(C)(C)C)cc(c1O)C2`: the cell viability was 103%.

In the case of `O=C(Cn1c(=O)cc(C(=O)N2CCCCC2)c2ccccc21)Nc1ccc2c(c1)OCO2`, the cell viability stood at 107%.

In the case of `Cc1cc(Oc2coc3cc(OC(=O)c4ccco4)ccc3c2=O)cc(C)c1Cl`, the cell viability is 101%.

As for `CC(=O)NC(CCCN=C(N)N)C(=O)O` (centres undefined), the cell viability was 92.7%.

In the case of `COc1cc(OC)cc(C(=O)OCc2ccc(F)cc2)c1`, the cell viability stood at 100%.

As to `Cc1cc(C(=O)O)nc2ccccc12`, the cell viability is 97.7%.

On to `O=C(/C=C/c1cccc(Cl)c1)c1ccc(-c2ccccc2)cc1`, for which the cell viability came to 96.4%.

As for `COc1ccc(C)cc1NC(=O)Cn1c(=O)cc(C(=O)N2CCc3ccccc3C2)c2ccccc21`, the cell viability was determined as 99%.

Consider `COc1ccc(C(=O)NCCc2c(C)[nH]c3c(C)cccc23)cc1OC`, for which the cell viability turned out to be 98.6%.

For `COc1ccc(C(=O)CCNc2ccc(F)cc2)cc1OC`, the cell viability amounted to 96.3%.

Consider `O=C(C1CC1)N1CCN(c2nc(NC3CCCC3)c3ccccc3n2)CC1`, for which the cell viability was found to be 86.7%.

For `O=C(CCc1cccc(F)c1)NC(CO)C(O)c1ccccc1` (centres undefined), the cell viability came out at 110%.

On to `Cc1ccc2nc(NC(=O)CN3CCc4ccccc4C3)sc2c1`, for which the cell viability is 99%.

Turning to `CCOc1cc(C2C(C(=O)OC)=C(C)NC3=C2C(=O)CC(c2ccccc2)C3)cc(Br)c1O` (centres undefined), the cell viability came to 105%.

As for `CCOc1ccc(NC(=O)C2c3ccccc3Oc3ccccc32)cc1`, the cell viability is 57.8%.

As to `O=C(c1ccccc1Cl)N1CCc2c([nH]c3ccccc23)C1c1ccc([N+](=O)[O-])cc1` (centres undefined), the cell viability was 103%.

For the molecule `O=c1[nH]c2ccc(Cl)cc2c(-c2ccccc2)c1Sc1nc2ccccc2[nH]1`, the cell viability amounted to 101%.

In the case of `COc1ccc2c(=O)c(-c3ccc(OC)c(OC)c3)coc2c1`, the cell viability amounted to 97%.

For `O=C(/C=C/c1ccccc1)ON1C(=O)CCC1=O`, the cell viability was found to be 108%.

Regarding `OCC1OC(O)C(O)C(O)C1O` (centres undefined), the cell viability turned out to be 99.2%.

On to `COc1cc(OC)cc([C@@H]2[C@@H](C(C)=O)N3c4ccccc4C=C[C@@H]3C2(C#N)C#N)c1`, for which the cell viability is 92.8%.

As for `COC(=O)C1Cc2c([nH]c3ccccc23)C(c2ccc(F)cc2)N1` (centres undefined), the cell viability turned out to be 100%.

For `COc1cc(OC)cc(C2C(C#N)=C(N)Oc3n[nH]c(C)c32)c1` (centres undefined), the cell viability was 92.9%.

On to `COc1cc(C(=O)Oc2ccc(Br)c3ccccc23)cc(OC)c1OC`, for which the cell viability was 99.9%.

Consider `COc1cccc(C2C(C(C)=O)=C(O)C(=O)N2CCc2cnc[nH]2)c1` (centres undefined), for which the cell viability stood at 105%.

As for `Cc1ccc2[nH]c(C)c(CCNC(=O)c3cccc([N+](=O)[O-])c3)c2c1`, the cell viability was 90.6%.

Consider `O=C(O)CNC(=O)c1ccc(Cl)cc1`, for which the cell viability was 108%.

`Cc1[nH]c2ccc(OC(F)(F)F)cc2c1CCNC(=O)c1cccnc1Cl`: the cell viability turned out to be 91.6%.

For the molecule `O=C(O)c1ccccc1-c1c2cc(I)c(=O)c(I)c-2oc2c(I)c(O)c(I)cc12`, the cell viability was found to be 72.1%.
